Laboratory results as given in the supplement of paper PMC4683952.
The list shows a part of the results. Cut-off read from the data, not from the text of the source: active = 2 or more and inactive = the rest. Single values are uncertain here, since repeats match poorly.

Test system: Lgr5 (MarsCy1-Lgr5-EGFP, U2OS)
Assay: cell-surface Lgr5 expression (SCi1 fluorescence, background-subtracted) relative to WT DMSO (fold of DMSO control); higher = more Lgr5 at the plasma membrane
Conditions: U2OS MarsCy1-Lgr5-EGFP stable; treatment time: overnight; library: ActiProbe-5K (TimTec); 25 µM

cell-surface Lgr5 expression, inactive:
O=S(=O)([O-])c1ccc(-c2nnc(-c3ccccn3)nc2-c2ccc(S(=O)(=O)[O-])o2)o1.[Na+].[Na+] 1.13
O=S(=O)(c1cccs1)c1cccs1 1.34
C1=Nn2cnnc2SC(c2ccccc2)=C1 0.585
O=C(N1CCCCCC1)N1CCOCC1 1.04
C=C1Cn2c(nnc2-c2ccc(Cl)cc2)S1 1.08
COc1ccc2c(c1)NC(C)(C)C=C2C 1.4
COc1cc(C2Oc3ccccc3C3CC(c4ccccc4)=NN32)cc(OC)c1OC (stereo not given) 0.767
c1coc(C2Nc3ccccc3C3OCCC23)c1 (stereo not given) 1.18
S=C(Nc1ccccc1)N1CCc2ccccc21 0.977
C=CCNc1nc2ccccn2c(=O)c1/C=C1\SC(=S)N(CC2CCCO2)C1=O (stereo not given) 1.45
O=C(/N=c1/nc2ccccn2s1)c1ccc(F)cc1 0.893
CCN(CC)C(=O)CN1C(=O)C(=O)c2cc(Br)ccc21 1.23
O=C(O)c1cc[n+](CCS(=O)(=O)[O-])cc1 1.13
CCOc1cccc2c1NC(C)(C)c1ssc(=S)c1-2 1.19
C=CCn1cc(Cl)cc/c1=N\C=C(C#N)C#N 0.942
c1ccc(CSc2nc3ccccc3s2)nc1 1.05
CC1CNC(C)(C)C(=O)C1 (stereo not given) 1.11
N#CC1=C(N)OC2=C(C(=O)CCC2)C1c1ccco1 (stereo not given) 1.13
Fc1ccc(-n2cccc2)cc1Cl 0.985
Brc1ncnc2[nH]cnc12 1.32
O=C1CC(n2nnc3ccccc32)C2COC1O2 (stereo not given) 1.23
Oc1ccc2ccccc2c1/N=N\c1ccccc1 1.22
CC(CC(=O)O)n1ccnc1 (stereo not given) 1.39
O=C(O)[C@@H]1CSC(c2coc3ccccc3c2=O)N1 (stereo not given in full) 1.44
C#CCOC(C)n1cccc1-c1cccs1 (stereo not given) 1.06
OC1(C#CCN2CCCC2)CCCCC1 1.38
N#Cc1cc(C#N)c(SC2C=CCCC2)nc1N (stereo not given) 0.533
Sc1nnc(-c2ccccc2)n1/N=C\c1cccc2ccccc12 0.981
O=[N+]([O-])c1cc(Sc2ccc(Cl)cc2)c2c(C3OCCO3)noc2c1 1.18
Sc1nc2cccc(Cl)c2o1 1.51
C=CCn1c(NCCN(CC)CC)nc2c1c(=O)[nH]c(=O)n2C 1.24
O=[N+]([O-])c1cnn(CSc2nc3ncccn3n2)c1 0.946
CC1Cn2c(nnc2C23CC4CC(CC(C4)C2)C3)S1 (stereo not given) 1.2
O=C(CSCCO)Nc1nccs1 1.14
Clc1ccc(-c2nnc(NC3=NCCC3)o2)cc1 0.913
O=C1NC(=S)S/C1=C\c1ccco1 1.2
COC(=O)Nc1nccs1 1.01
Cc1cc(N2CCN(C3=NCC(C)(C)S3)CC2)n2c(nc3ccccc32)c1C#N 0.867
COc1cc(OC)c(-c2nn3c(C4CCCCC4)nnc3s2)cc1OC 1.65
COc1ccc2c(c1)C1OCCC1C(c1ccncc1)N2 (stereo not given) 1.52
O=C(NC1CC1)c1ccc(=O)[nH]c1 0.895
COc1ccc(OC)c(C2=Nn3c(nnc3-c3ccccn3)SC2)c1 1.01
CC(=O)SC[C@@H](C)C(=O)N1CCC[C@H]1C(=O)O 1.27
N#Cc1cnc2c(C(N)=O)cnn2c1N 0.99
O=S(=O)(Nc1ccc(S(=O)(=O)Nc2nccs2)cc1)c1ccc2c(c1)OCCO2 1.62
CCOc1ccc2c(c1)-c1c(sn(-c3ccc(OC)cc3)c1=S)C(C)(C)N2 0.684
COc1cc(Cn2ccnc2)c(OC)cc1Cn1ccnc1 1.14
O=C1C2C(C(=O)N1c1ccc([N+](=O)[O-])cc1)C1C=CC2C12CC2 (stereo not given) 1.33
CCCCC(CC)C(=O)NCC1CCCO1 (stereo not given) 1.15
COc1ccc(C2=NN=C3COc4ccc(Cl)cc4N3C2)cc1 1.32
O=[N+]([O-])c1ccc(/N=C\c2cc(Br)cc(Br)c2O)c(O)c1 0.64
Cc1csc(NC(=O)NC(C)(C)C)n1 1.31
O=c1c2c3c(sc2nc2n1CCC2)CCCC3 1.37
CCSc1ncc(C#N)c(N)n1 1.13
CCCC(C)NS(=O)(=O)c1c(C)cc(C)cc1C (stereo not given) 1.04
O=c1nc2ccccn2c2ccc([N+](=O)[O-])cc12 0.81
CN1C(=O)C(=O)c2cc(Br)ccc21 1.13
Clc1cc(/N=C\c2ccc(Br)s2)ccc1Br 1.08
O=C1/C(=C\N2CCN(c3ccc(F)cc3)CC2)SC(=S)N1c1ccc(F)cc1 1.54
COC(=O)c1c(O)cc(=O)[nH]c1N 1.07
O=C1OC2(OC=C(c3ccccc3)C2=O)c2ccccc21 (stereo not given) 1.36
S=c1n(Cn2nnn(-c3ccccc3)c2=S)nnn1-c1ccccc1 1.6
O=C(O)CSCc1ccco1 1.33
CC(C)(C)OC(=O)N1CCCC(CN)C1 (stereo not given) 1.11
Clc1c(-c2nnc(-c3cccs3)o2)sc2ccccc12 0.913
O=C(O)c1ccc(Br)s1 1.01
c1ccc2[nH]c(CCSc3nc4ccccc4[nH]3)nc2c1 1.27
CN(C)/C=C(/C=O)n1cc([N+](=O)[O-])cn1 1.16
CCc1ccc(C(C2C(=O)CC(C)(C)CC2=O)C2C(=O)CC(C)(C)CC2=O)s1 1.02
O=S(=O)(c1ccc2oc3ccccc3c2c1)N1CCCc2ccccc21 0.759

Five entries picked at random from those above:
cell-surface Lgr5 expression, inactive:
COc1ccc2c(c1)C1OCCC1C(c1ccncc1)N2 (stereo not given) 1.52
CC1Cn2c(nnc2C23CC4CC(CC(C4)C2)C3)S1 (stereo not given) 1.2
COC(=O)c1c(O)cc(=O)[nH]c1N 1.07
O=S(=O)([O-])c1ccc(-c2nnc(-c3ccccn3)nc2-c2ccc(S(=O)(=O)[O-])o2)o1.[Na+].[Na+] 1.13
CCCC(C)NS(=O)(=O)c1c(C)cc(C)cc1C (stereo not given) 1.04
